Assay results: publication PMC2809763
These are yes or no findings as the source states them, for the method shown. Binding seen in cells or lysates may run through a third protein. A result given as binding can be weak or reduced; the word gives no strength. Sequences can lack the tags named with a protein.

Sequences of proteins named here, by UniProt entry; tags and fusion partners are left off. A change or cut given only in a name is not applied to a line headed by its entry.
UniProt Q9N595: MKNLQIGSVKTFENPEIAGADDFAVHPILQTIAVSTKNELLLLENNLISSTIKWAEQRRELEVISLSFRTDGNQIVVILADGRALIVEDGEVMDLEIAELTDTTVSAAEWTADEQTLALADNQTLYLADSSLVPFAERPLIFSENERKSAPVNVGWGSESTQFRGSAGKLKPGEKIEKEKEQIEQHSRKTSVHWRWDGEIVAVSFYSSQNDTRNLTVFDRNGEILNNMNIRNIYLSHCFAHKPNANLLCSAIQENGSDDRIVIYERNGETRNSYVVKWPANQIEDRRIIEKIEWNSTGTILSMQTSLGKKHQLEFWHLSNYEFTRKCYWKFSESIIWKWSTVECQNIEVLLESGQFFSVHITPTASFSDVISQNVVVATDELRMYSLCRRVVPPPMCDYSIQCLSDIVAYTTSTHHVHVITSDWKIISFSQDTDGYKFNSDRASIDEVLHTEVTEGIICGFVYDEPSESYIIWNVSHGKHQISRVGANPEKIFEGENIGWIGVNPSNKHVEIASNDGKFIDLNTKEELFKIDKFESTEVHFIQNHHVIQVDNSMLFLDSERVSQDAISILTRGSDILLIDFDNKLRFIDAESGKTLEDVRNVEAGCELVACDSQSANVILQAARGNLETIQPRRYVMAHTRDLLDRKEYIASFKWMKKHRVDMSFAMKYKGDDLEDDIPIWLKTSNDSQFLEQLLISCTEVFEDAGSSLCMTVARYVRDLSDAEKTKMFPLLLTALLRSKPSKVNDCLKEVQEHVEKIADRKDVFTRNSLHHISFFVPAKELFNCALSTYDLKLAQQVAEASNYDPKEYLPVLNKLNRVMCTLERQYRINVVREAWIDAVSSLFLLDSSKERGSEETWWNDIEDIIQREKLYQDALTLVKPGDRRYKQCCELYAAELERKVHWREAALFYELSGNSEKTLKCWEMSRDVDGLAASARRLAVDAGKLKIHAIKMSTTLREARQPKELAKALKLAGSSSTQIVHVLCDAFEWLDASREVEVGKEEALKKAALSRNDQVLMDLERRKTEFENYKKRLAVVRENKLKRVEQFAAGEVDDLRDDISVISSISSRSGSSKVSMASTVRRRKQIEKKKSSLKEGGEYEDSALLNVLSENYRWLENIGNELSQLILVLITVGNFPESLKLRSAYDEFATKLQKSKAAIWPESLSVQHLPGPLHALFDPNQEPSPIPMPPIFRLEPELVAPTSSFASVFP

T1: ELPC-3::GFP (C. elegans) (UniProt Q23651)
T1 sequence: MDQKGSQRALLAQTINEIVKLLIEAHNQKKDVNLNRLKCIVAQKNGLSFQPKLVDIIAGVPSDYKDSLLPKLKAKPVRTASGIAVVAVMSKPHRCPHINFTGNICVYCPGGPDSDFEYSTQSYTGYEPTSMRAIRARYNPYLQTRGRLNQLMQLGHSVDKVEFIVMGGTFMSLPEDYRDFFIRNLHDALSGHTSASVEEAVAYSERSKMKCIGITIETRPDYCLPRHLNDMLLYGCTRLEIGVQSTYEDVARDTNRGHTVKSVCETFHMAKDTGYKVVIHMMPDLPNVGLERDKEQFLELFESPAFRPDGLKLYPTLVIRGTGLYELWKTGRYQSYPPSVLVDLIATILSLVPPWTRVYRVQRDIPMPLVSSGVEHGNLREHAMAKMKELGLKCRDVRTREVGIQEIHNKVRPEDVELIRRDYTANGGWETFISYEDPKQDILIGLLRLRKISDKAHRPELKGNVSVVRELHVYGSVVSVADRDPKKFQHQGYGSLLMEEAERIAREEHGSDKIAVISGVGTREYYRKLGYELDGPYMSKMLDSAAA

B1: ELPC-3::GFP (protein, UniProt Q23651 1-547)
chain: T1 sequence

Legend:
ELPC-3::GFP (C. elegans) = target: T1, ELPC-3::GFP (C. elegans); test: co-IP; reciprocal: worm lysates in HNNG buffer, 4°C; immunoprecipitation with anti-GFP, blot with anti-ELPC-1
[1] = target: α-tubulin (endogenous) (C. elegans (endogenous in worms)); test: co-IP; worm lysates in HNNG buffer, 4°C; α-tubulin immunoprecipitated with anti-α-tubulin, blot with anti-ELPC-1 or anti-GFP; backgrounds: wt, elpc-3 deleted, elpc-1(ng10) expressing ELPC-1::GFP variants, elpc-3(tm3120) expressing ELPC-3::GFP

Molecule | binding (ELPC-3::GFP (C. elegans)) | binding [1]
ELPC-1 (endogenous) (from UniProt Q9N595) | binds | 
B1 |  | binds
